Experimental data published in patent US20210332131A1.
These are yes or no findings as the source states them, for the method shown. Some entries that bind do so weakly or less than the wild type.

Amino acid sequences for entries named in this document (tags omitted). Residues count along the entry.
UniProt Q08722, residues 19-323: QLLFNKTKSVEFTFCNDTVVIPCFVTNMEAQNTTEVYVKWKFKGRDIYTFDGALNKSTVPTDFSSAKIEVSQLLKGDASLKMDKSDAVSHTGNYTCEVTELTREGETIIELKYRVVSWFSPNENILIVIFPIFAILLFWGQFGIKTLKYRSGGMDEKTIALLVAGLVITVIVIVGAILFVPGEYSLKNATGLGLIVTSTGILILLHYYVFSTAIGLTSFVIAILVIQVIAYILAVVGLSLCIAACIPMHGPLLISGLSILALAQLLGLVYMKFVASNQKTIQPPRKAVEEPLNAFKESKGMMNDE

Biological target: CD47 (human) (UniProt Q08722)
Assay: flow cytometry on SKBR3 WT (CD20-/CD47+) and SKBR3-CD20 cells, detection anti-IgA PE

B1: IgA3.0-2.3D11 (antibody, V domains shown)
VH: QVQLQESGPGLVKPSGTLSLTCAVSGVSIRSINWWNWVRQPPGKGLEWIGEIYHSGSTNYNPSLKSRVTISVDKSKNQFSLKLNSVTAADTAVYYCARDGGIAVTDYYYYGLDVWGQGTTVTVSS
VL: EIVLTQSPATLSLSPGERATLSCRASESVSSNLAWYQQKPGQAPRLLIYGAFNRATGIPARFSGSGSGTDFTLTISSLEPEDFAVYYCQQRSDWFTFGGGTKVEIKR
- binding: binds
